# According to PubChem BioAssay AID504444 (National Center for Advancing Translational Sciences (NCATS), 2011):
# In all, about 360,000 compounds went through this assay and about 7,500 (2.1%) were called active. The shares of active, inactive and inconclusive entries below differ from those in the screen. Calls follow the shape of the dose curve; as a rule, active = well fitted inhibition curve with a large enough effect; inconclusive = small, poorly fitted or top-dose-only effect, or effect the other way; inactive = flat fitted curve, though single readings scatter. A potency beside an inconclusive call is a rough fit, not a confirmed value.
# Assay: Nrf2 qHTS screen for inhibitors; also: nearly all actives have a fitted effect of over 60% in size
# Conditions: A549 ARE-Fluc reporter, luciferase luminescence, 18-24 h; activity change, negative = inhibition: at 46 µM (top of the series)
# Outline: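 Nrf2 activity is the BugLite luminescence, read 15 min after reagent at room temperature, following CellTiter-Fluor cytotoxicity readout (30 min, 37C). Compound titrations were applied for 18-24 h to 5000 A549 ARE_Fluc cells/well in 5% FBS OPTI-MEM.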
# % is scaled to controls: 0 for no effect and ±100 for the full control effect; potency is read from the fitted curve at half-maximal effect.
SMILES,Potency,"activity change, negative = inhibition"
CCCCn1c(SCC(=O)Nc2ccc(NC(C)=O)cc2)nc2ccccc2c1=O,"inconclusive: 16.4 µM [falling, single point]",–
CCOC(=O)c1sc2nc3c(cc2c1N)COC(C)(CC)C3 (stereo unspecified),"inconclusive: 1.64 µM [activator, full curve, poor fit]",–
CC(=O)NNc1ncnc2c1cnn2-c1ccc(C)cc1,"inconclusive: 23.1 µM [activator, partial curve]",–
C=CCN(C(=O)c1csnn1)C(C(=O)NC1CCCC1)c1ccccc1F (stereo unspecified),"inconclusive: 25.9 µM [activator, partial curve, poor fit]",–
O=C(C1CCCCC1)N1CCN=C1SCc1cccc([N+](=O)[O-])c1,active: 20.6 µM,–
COc1cccc(-c2nc(-c3ccccn3)no2)c1OC,"inconclusive: 16.4 µM [activator, partial curve]",–
Brc1ccc(C2=Nn3c(nnc3-c3n[nH]c4c3CCC4)SC2)cc1,"inconclusive: 1.84 µM [falling, full curve, poor fit]",–
Cc1csc2c(N3CCN(C(=O)Nc4ccc(Cl)c(Cl)c4)CC3)ncnc12,active: 20.6 µM,–
COCCn1cc(C(=O)NCCN(C)C)c2c3ccccc3n(C)c2c1=O,–,inactive: 4.16%
CN(C(=O)c1ccc(NC(=O)Cc2ccc(NC(=O)C3CCCN(C(=O)CCc4ccccc4)C3)cc2)cc1)C1CCCC1 (stereo unspecified),active: 23.1 µM,–
COc1ccc(CNC(=O)c2c([S-])n(-c3ccc(C)cc3)c3cccc[n+]23)cc1,"inconclusive: 29.1 µM [falling, single point]",–
O=C(NCc1nc2ccccc2[nH]1)C1=C[C@H](c2csc3ccccc23)C[C@H](OCc2ccc(CO)cc2)O1,"inconclusive: 32.6 µM [falling, single point]",–
COc1ccccc1NC(=O)c1ccc(NC(=O)c2ccco2)cc1,"inconclusive: 8.2 µM [falling, partial curve]",–
CCS(=O)(=O)c1ccc(N=Nc2ccc(O)c3ncccc23)c(OC)c1,"inconclusive: 16.4 µM [falling, single point]",–
CCC(=O)Nc1ccc(C(=O)CSc2nc3ccccc3cc2CC)cc1,"inconclusive: 25.9 µM [falling, single point]",–
CC(=O)Nc1cccc(-c2csc(Nc3ccc(C)cn3)n2)c1,"inconclusive: 2.59 µM [activator, partial curve]",–
COc1ccc(COc2ncnc3ccc(Br)cc23)cc1F,"inconclusive: 18.4 µM [activator, partial curve, poor fit]",–
O=C(c1cccc(-c2ccco2)c1)N1CCCC(N2CCN(c3ccc(F)cc3)CC2)C1 (stereo unspecified),"inconclusive: 23.1 µM [falling, single point]",–
c1ccc(-c2nc(NCc3ccco3)c3oc4ccccc4c3n2)cc1,"inconclusive: 11.6 µM [falling, partial curve, poor fit]",–
O=C(c1ccc([N+](=O)[O-])o1)N1CCN(c2nc3c(Cl)cccc3s2)CC1,"inconclusive: 3.66 µM [activator, single point]",–
CCc1cccc(CC)c1NC(=O)CSc1nc2ccc(N3C(=O)C4C5C=CC(C5)C4C3=O)cc2s1 (stereo unspecified),–,inactive: -20.2%
CC(=O)Oc1ccc(N(C(C)=O)S(=O)(=O)c2ccc(C)cc2)c2ccccc12,–,inactive: -7.27%

SMILES,Potency,"activity change, negative = inhibition"
Cc1sc2c(c1C)c(=O)n(Cc1ccccc1)c(=O)n2CC(=O)Nc1cccc(Cl)c1,"inconclusive: 32.6 µM [falling, single point]",–
CCOC(=O)c1cccc(NC(=O)Nc2cc(OC)ccc2OC)c1,active: 20.6 µM,–
CC1(C)C[C@@H]2C[C@@](C)(CN2C(=O)c2cc(COc3cccc(C(F)(F)F)c3)on2)C1,"inconclusive: 29.1 µM [falling, single point]",–
Cc1ccc(S(=O)(=O)N2CCN(C(=O)c3ccc4ccccc4n3)CC2)c(C)c1,"inconclusive: 25.9 µM [activator, partial curve]",–
O=C(Nc1ccc(F)cc1Cl)c1ccc2c(=O)n3c(nc2c1)CCC3,"inconclusive: 10.3 µM [activator, partial curve]",–
COc1cccc(C(=O)NNC(=O)c2cccc3ccccc23)c1,"inconclusive: 7.31 µM [activator, partial curve, poor fit]",–
COc1ccccc1C1C(C#N)=C(N)Oc2c1c(-c1ccccc1)nn2-c1ccccc1 (stereo unspecified),active: 20.6 µM,–
CCSc1nnc2nc3[nH]c4c(C)cccc4c3nn12,"inconclusive: 29.1 µM [activator, single point]",–
Cc1ccc(S(=O)(=O)N2CCN(C(=O)COC(=O)c3cc([N+](=O)[O-])ccc3NCCO)CC2)c(C)c1,"inconclusive: 32.6 µM [falling, single point]",–
COCCCNC(=O)C1CCCN(S(C)(=O)=O)C1 (stereo unspecified),–,inactive: 10.6%
CCc1cc2c(Sc3nc4ccccc4s3)ncnc2s1,"inconclusive: 18.4 µM [falling, single point]",–
COc1ccc(CCNC(=O)CCCn2c(=O)c3cccn3c3ccc(F)cc32)cc1OC,"inconclusive: 29.1 µM [activator, single point]",–
O=C(COc1ccc(S(=O)(=O)NC2CCCCC2)cc1Cl)N1CCN(c2ccccc2)CC1,"inconclusive: 29.1 µM [falling, partial curve, poor fit]",–
CC(=O)Nc1ccc(-c2csc(NNC(=O)c3ccccc3)n2)cc1,active: 13 µM,–
CCOc1ccc(-c2c(=O)n(O)c3ccccc3[n+]2[O-])cc1,"inconclusive: 0.231 µM [activator, partial curve, poor fit]",–
COc1ccccc1N(C)S(=O)(=O)c1ccc(C(=O)N2CCC2)cc1,–,inactive: -6.64%
O=C(CN(CCc1ccccc1)S(=O)(=O)c1ccc(Br)cc1)N/N=C/c1ccc2c(c1)OCO2,"inconclusive: 0.0058 µM [falling, full curve, poor fit]",–
C=C1CCC[C@]2(C)C[C@H]3OC(=O)C(CN(Cc4ccc(OC)c(OC)c4)CC(C)O)[C@H]3CC12 (stereo partly specified),"inconclusive: 18.4 µM [falling, single point]",–
O=C(N/N=C/c1ccc([N+](=O)[O-])cc1)c1[nH]ncc1Br,"inconclusive: 2.06 µM [activator, full curve]",–
CCN(CC)C(=O)C1CCCc2c1[nH]c1ccc(Cl)cc21 (stereo unspecified),"inconclusive: 3.26 µM [activator, full curve]",–
COc1ccccc1NC(=O)C1CCN(c2ncnc3c2nc2n3CCCCC2)CC1,"inconclusive: 29.1 µM [falling, single point]",–
N/C(=N\OC(=O)CSc1ccccc1)c1ccncc1,"inconclusive: 7.31 µM [activator, partial curve]",–

# Arranged by length of the SMILES (largest number first): part of the list above.
SMILES,Potency,"activity change, negative = inhibition"
CCc1cccc(CC)c1NC(=O)CSc1nc2ccc(N3C(=O)C4C5C=CC(C5)C4C3=O)cc2s1 (stereo unspecified),–,inactive: -20.2%
O=C(c1cccc(-c2ccco2)c1)N1CCCC(N2CCN(c3ccc(F)cc3)CC2)C1 (stereo unspecified),"inconclusive: 23.1 µM [falling, single point]",–
Cc1ccc(S(=O)(=O)N2CCN(C(=O)c3ccc4ccccc4n3)CC2)c(C)c1,"inconclusive: 25.9 µM [activator, partial curve]",–
CC(=O)NNc1ncnc2c1cnn2-c1ccc(C)cc1,"inconclusive: 23.1 µM [activator, partial curve]",–
CCc1cc2c(Sc3nc4ccccc4s3)ncnc2s1,"inconclusive: 18.4 µM [falling, single point]",–

# Later entries

SMILES,Potency,"activity change, negative = inhibition"
Cc1ccnc(NC(=O)c2oc3ccccc3c2C)c1,"inconclusive: 2.59 µM [activator, partial curve, poor fit]",–
CCOC(=O)N/N=C/c1cn(CCCOc2ccccc2)c2ccccc12,–,inactive: 27%
COc1ccc(CCNc2cc(-c3ccccc3)nc3ncnn23)cc1,"inconclusive: 2.91 µM [falling, partial curve, poor fit]",–
NS(=O)(=O)c1cccc(NC(=O)c2cccc(-c3ccc(O)cc3)c2)c1,–,inactive: -15.1%
O=Cc1cc(N=Nc2ccccc2Cl)ccc1O,"inconclusive: 18.4 µM [activator, partial curve, poor fit]",–
O=C(COc1ccc(Cl)cc1Cl)c1ccc[nH]1,"inconclusive: 8.2 µM [activator, partial curve]",–
CCCCN=C1NN=C(c2cc3ccccc3o2)CS1,"inconclusive: 5.17 µM [activator, partial curve]",–
CCc1ccc(-n2nc(CO)c(C(=O)NCCCCc3ccccc3)n2)cc1,–,inactive: 0.273%
O=c1oc(CCCO)cc2ccc(/C=C/c3cccc([N+](=O)[O-])c3)cc12,"inconclusive: 3.26 µM [activator, full curve]",–
Cc1nc2ccccc2c2c1CC(C(C)(Cl)Br)O2 (stereo unspecified),"inconclusive: 18.4 µM [falling, single point]",–
CC(=O)N1CCN(C(=O)CCCNC(=O)c2ccc(Cl)cc2)CC1,–,inactive: 4%
O=C(CCNC(=O)c1ccccc1)Nc1nc2ccccc2s1,"inconclusive: 16.4 µM [activator, partial curve]",–
Cc1ccccc1OCC(=O)N(Cc1ccc(C(C)C)cc1)C1CCS(=O)(=O)C1 (stereo unspecified),–,inactive: -28.4%
CN(Cc1ccccc1)C1=CC(=[N+]2CCCC2)CC(C)(C)C1,active: 4.61 µM,–
COc1ccccc1C(=O)Nc1ccc(C(=O)Nc2ccccc2C(=O)O)cc1,"inconclusive: 29.1 µM [falling, single point]",–
Cc1cc(OC(C)C(=O)N2CCN(c3ccc(F)cc3)CC2)c2c(C)c(C)c(=O)oc2c1 (stereo unspecified),active: 25.9 µM,–
COc1cccc(N2CCN(C(=O)CCCCCNc3nc(=S)[nH]c4ccccc34)CC2)c1,"inconclusive: 32.6 µM [falling, single point]",–
Cc1ccc(C)c(CN2C(=O)C(O)(c3c[nH]c4ccccc34)c3ccccc32)c1 (stereo unspecified),"inconclusive: 18.4 µM [falling, single point]",–
Nn1c(-c2cccc(O)c2)nnc1-c1cccc(O)c1,–,inactive: 12.9%
CC(Oc1ccc(Cl)cc1)C(=O)Nc1ccc(S(=O)(=O)Nc2nccs2)cc1 (stereo unspecified),"inconclusive: 2.31 µM [falling, single point]",–
COc1ccccc1-c1cnn2c(NC3CCCC3)cc(C)nc12,"inconclusive: 23.1 µM [activator, partial curve]",–
CC1CCN(S(=O)(=O)c2ccc3ncn(CC(=O)N(C)C4CCCCC4)c(=O)c3c2)CC1,"inconclusive: 29.1 µM [falling, single point]",–
